These are yes or no findings as the source states them, for the method shown. Some entries that bind do so weakly or less than the wild type.

By UniProt entry, the sequences of proteins in these tests, tags left out.
UniProt P05556: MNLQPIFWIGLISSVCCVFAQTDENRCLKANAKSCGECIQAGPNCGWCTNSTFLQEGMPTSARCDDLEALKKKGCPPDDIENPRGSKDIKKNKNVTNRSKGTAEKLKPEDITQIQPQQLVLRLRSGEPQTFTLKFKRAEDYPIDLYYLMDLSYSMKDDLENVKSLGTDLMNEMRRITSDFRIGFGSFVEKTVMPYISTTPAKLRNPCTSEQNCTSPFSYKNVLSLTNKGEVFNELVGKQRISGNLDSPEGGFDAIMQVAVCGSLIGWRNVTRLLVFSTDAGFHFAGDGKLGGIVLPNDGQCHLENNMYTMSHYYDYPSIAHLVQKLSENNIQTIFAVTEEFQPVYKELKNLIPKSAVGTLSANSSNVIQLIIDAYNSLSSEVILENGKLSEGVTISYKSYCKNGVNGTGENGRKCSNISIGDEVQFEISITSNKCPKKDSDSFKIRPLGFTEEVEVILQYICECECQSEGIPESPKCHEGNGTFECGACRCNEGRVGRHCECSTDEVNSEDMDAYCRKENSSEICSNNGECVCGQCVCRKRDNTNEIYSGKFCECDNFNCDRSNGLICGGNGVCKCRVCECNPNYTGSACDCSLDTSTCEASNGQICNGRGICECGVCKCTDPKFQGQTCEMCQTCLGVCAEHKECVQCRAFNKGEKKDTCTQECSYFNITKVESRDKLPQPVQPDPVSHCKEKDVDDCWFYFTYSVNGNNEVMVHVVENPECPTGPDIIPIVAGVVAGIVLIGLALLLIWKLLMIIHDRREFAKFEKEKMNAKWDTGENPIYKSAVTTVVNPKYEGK

To fix the notation:
B1: 141-B6 (VHH)
VHH: EVQLVESGGGMVQTGGSLRLSCAASGSTLNINNGEWYRQAPGKQREFVAAIGSGGTTDYADSVKGRFTISKANAKNTLYLQMNSLKPEDTAVYYCYVRSWRNYWGQGTQVTVSS
B2: 141-E5 (VHH)
VHH: EVQLVESGGGLVQAGGSLRLSCAASGSISSINSINIMGWYRQAPGKQRDLVAYITKRGSTKYADSVKGRFTISRDNAKNMATLQMNSLKPEDTAVYYCAAGPDGLGGQDDYWGQGTQVTVSS
B3: 245-D7 (VHH)
VHH: EVQLVESGGGLVQAGGSLRLSCTASGRTASTYAMGWLRQAPGKEREFVAAISYSGATTYYADSVKGRFTISRDNAKSTAYLQMNSLQPEDTAVYYCAASANRDLSLWVSTAYRSTGLWYWGQGTQVTVSS
B4: 141-F5 (VHH)
VHH: EVQLVESGGGLVQAGGSLRLACQASRAIERIVGWYRQAPGKQRELVAAITVPGITNYTDSVKDRFTISRDSAKNTVYLQMNKLKPEDTAVYYCAAPTYGRGQGTQVTVSS
B5: 141-H10 (VHH)
VHH: EVQLVESGGGLVQPGGSLRLSCAVSGFTSDYYAIGWFRQAPGKEREGVSCISSSDGSTYYABSVKGRFTISRDNAKNTVYLQMNSLKPEDTAVYYCATTCVVNPEGYDFWGQGTQVTVSS
B6: 142-A7 (VHH)
VHH: EVQLVESGGGLVQAGGSLSLSCAASGASGIIYSINAMGWYRQAPGKQREVVAVVTNGGSTEYADFVKGRFTVSREYAKNAVYLQMNSLKPEDTAVYYCYARGIIARWGSAPGNYWGQGTQVTVSS
B7: 142-G7 (VHH)
VHH: EVQLVESGGGLVQAGGSLRLSCAASGASGTIYSISSMGWYRQAPGKQREVVAVVTNGGSTEYADFVKGRFTVSREYAKNAVYLQMNSLKPEDTAVYYCYARGIIARWGSAPGNYWGQGTQVTVSS
B8: 142-C9 (VHH)
VHH: EVQLVESGGGLVQAGGSLRLSCAASGRTISRFTMGWFRQAPGKERDFVAAISWGGGRTKYEDSVTGRFTISRDNAQNTVYLQMDSLKPEDTAVYYCAABSRGPYNSNWHQSSVSYDYWGQGTQVTVSS
B9: 141-F11 (VHH)
VHH: EVQLVESGGGLVQAGGSLRLSCAASGRTISRFTMGWFRQAPGKERDFVAAISWGGGRTNYEDSVKDRFTISRDNAQNTVYLQMNSLKPEDTAVYYCAABSRGPYNSNWHQSSVSYDYWGQGTQVTVSS
B10: 142-D8 (VHH)
VHH: EVQLVESGGGLVQAGGSLRLSCAASGRTISRFTMGWFRQAPGKERDFVAAISWGGGRTKYEDSVTGRFTISRDNAQNTVYLQMNSLKPEDTAVYYCAABSRGPYNSNWHQSSVSYDYWGQGTQVTVSS
B11: 142-E11 (VHH)
VHH: EVQLVESGGGLVQAGGSLRLSCAASGRTISRFTMGWFRQAPGKERDFVAAISWGGGRTNYEDSVKGRSTISRDNAQNTVYLQMNSLKPEDTAVYYCAABTRGPYNSNWAQSSVSYDYWGQGTQVTVSS

The experiment addresses Human beta1 (human) (UniProt P05556). Put plainly: specificity ELISA on coated integrins, periplasmic extract.
As for B1, the binding entry was “binds”.
In the case of B2, the binding entry is listed as “binds”.
For B3, the binding result is “binds”.
For B4, the binding result was “binds”.
For B5, the binding result is reported as “binds”.
For the molecule B6, the binding result is recorded as “binds”.
With B7, the binding result is recorded as “binds”.
B8: the binding result was “binds”.
To B9 belongs “binds”; to B10, “binds”; to B11, “binds”.
